Experimental data published in patent US20250236669A1.
These are yes or no findings as the source states them, for the method shown. Some binding calls cover weakened binding; strength is not graded here.

What was measured:
[1] = molecular target: CB1 T210A/fusion partner, over-expressed on TRex CHO A56 cells (human) (UniProt P21554); test: flow cytometry (FIG. 2B)
[2] = molecular target: CB1 T210A/fusion partner, over-expressed on TRex CHO A56 cells (human) (UniProt P21554); test: flow cytometry, mean fluorescence intensity against IgG concentration, cells with CB1 T210A/3A4C (A56)
[3] = molecular target: CB1 T210A/fusion partner, over-expressed on TRex CHO A56 cells (human) (UniProt P21554); test: flow cytometry
[4] = molecular target: CB1 T210A/fusion partner, over-expressed on TRex CHO A56 cells (human) (UniProt P21554); test: flow cytometry, mean fluorescence intensity against antibody concentration, TRex-CHO CB1 (T210A/3A4C) cells
[5] = molecular target: native full length human CB1 receptor (TRex-CHO A156 cells) (human) (UniProt P21554); test: flow cytometry, IgG at 300 nM and 30 nM on Trex-CHO Native human CB1 cells, compared with Trex-CHO parental cells
[6] = molecular target: native full length human CB1 receptor (TRex-CHO A156 cells) (human) (UniProt P21554); test: flow cytometry on Trex-CHO Native human CB1 (A156) cells, compared with Trex-CHO parental cells; concentration not printed on the sheet
[7] = molecular target: CB1 T210A/fusion partner, over-expressed on TRex CHO A56 cells (human) (UniProt P21554); test: flow cytometry on Trex-CHO CB1 T210A/fusion partner (A56) cells, compared with Trex-CHO parental cells; concentration not printed on the sheet
[8] = molecular target: CB1 T210A/fusion partner, over-expressed on TRex CHO A56 cells (human) (UniProt P21554); test: flow cytometry, IgG at 300 nM and 30 nM on Trex-CHO CB1 T210A/fusion partner cells, compared with Trex-CHO parental cells

Binder | binding [5] | binding [8] | further results
36E12B6C2 IgG (antibody, V domains shown) VH: QVQLQQSGAELVRPGSSVKISCKASGYEFSYYWMNWVKQRPGQGLQWIGQIYPGDGDTNYNGKFKGKATLTADKSSSTAYMHLTSLTSEDSAVYFCARSGGNPFAFWGQGTLVTVSA VL: DIQMTQTSSSLSASLGDRVTFSCRASQDISNYLNWYQQKPDGTVKLLIYYTSRLHSGVTSRFRGSGSGTDYSLTISNLEQEDVATYFCQQGHTLPWSFGGGTKLEIKR |  |  | binding [1]: binds; binding [2]: binds; binding [3]: binds
P1C4-h0-IgG1 (antibody, V domains shown) VH: QVQLVQSGAEVKKPGSSVKVSCKASGGTFSYYWMNWVRQAPGQGLEWMGQIYPGDGETKYAQKFQGRVTITADKSTSTAYMELSSLRSEDTAVYYCARSHGNYLPYWGQGTLVTVSS VL: EIVLTQSPATLSLSPGERATLSCRASQSVSSSYLHWYQQKPGQAPRLLIYSTSNLASGIPARFSGSGSGTDFTLTISRLEPEDFAVYYCHQYHRSPPTFGQGTKVEIKR |  |  | binding [3]: binds; binding [4]: binds
PA2LR3-P1H4 (chimeric) (antibody, V domains shown) VH: EVQLQQSGAELVRPGSSVKISCKASGYVFGNYWMNWVKQRPGQGLEWIGQIYPGDGDTNYNGKFKGKATLTADKSSSTAYMQLSSLTSEDSAVYFCARSHGNYFPYWGQGTLVTVSA VL: QIVLTQSPAIMSASLGERVTMTCTASSSVSSSYLHWYQQKPGSSPKLWIYSTSNLASGVPARFSGSGSGTSYSLTISSMEAEDAATYYCQQWSSYPLTFGAGTKLELKR | binds | binds | binding [6]: binds; binding [7]: binds
PA2LR3-P2D3 (chimeric) (antibody, human IgG1, kappa, V domains shown) VH: EVQLQQSGAELVRPGSSVKISCKASGYAFSYYWMNWVKQRPGQGLEWIGQIYPGDGDTNYNGKFKGKATLTADKSSSTAYMQLSSLTSEDSAVYFCARSHGSYFAYWGQGTLVTVSA VL: DIELAQSPASLAVSLGQRATISCRASESVDSYGNSFMHWYQQKPGQPPKLLIYLASNLESGVPARFSGSGSRADFTLTIDPVEADDAATYYCLQYASSPPTFGAGTKLEIKR |  | binds | 
PA2LR3-P3B10 (chimeric) (antibody, V domains shown) VH: EVQLQQSGAELVRPGSSVKISCKASGYAFSYYWMNWVKQRPGQGLEWIGQIYPGDGDTNYNGKFKGKATLTADKSSSTAYMQLSSLTSEDSAVYFCARSHGNYFPYWGQGTLVTVSA VL: DIVITQSPAIVSASLGERVTMTCTASSSVSSSYLHWYQQKPGSSPKLWIYSTSNLASGVPARFSGSGSGTSYSLTISSMEAEDAATYYCQQWSSYPLTFGAGTKLEIKR | binds | binds | 
PA2LR3-P4G10 (chimeric) (antibody, V domains shown) VH: EVQLQQFGAELVRPGSSVKISCKASGYAFSYYWMNWVKQRPGQGLEWIGQIYPGDGDTNYNGKFKGKATLTADKSSSTAYMQLSSLTSEDSAVYFCARSHGNYFAYWGQGTLVTVSA VL: DIVLTQSPAIMSASLGERVTMTCTASSSVSSSYLHWYQQKPGSSPKLWIYSTSNLASGVPARFSGSGSGTSYSLTISSMEAEDAATYYCQQWSSNPLTFGAGTKLELKR | binds | binds | 
PA2LR3-P1G6 (chimeric) (antibody, V domains shown) VH: EVQLQQSGAELVRPGSSVKISCKASGYAFSYYWMNWVKQRPGQGLEWIGQIYPGDGDTNYNGKFKGKATLTVDKSSSTAYMQLSSLTSEDSAVYFCARSHGNYFAYWGQGTLVTVSA VL: DIVLSQSPAIMSASLGERVTMTCTASSSVSSSYLHWYQQKPGSSPKLWIYSTSNLASGVPARFSGSGSGTSYSLTISRMEAEDAATYYCQQWSSYPLTFGAGTKLELKR |  |  | binding [6]: binds; binding [7]: binds
PA2LR3-P2B8 (chimeric) (antibody, V domains shown) VH: EVQLQQSGAELVRPGSSVKISCKASGYAFSYYWMNWVKQRPGQGLEWIGQIYPGDGDTNYNGKFKGKATLTADKSSSTAYMQLSSLTSEDSAVYFCARSHGNYFAYWGQGTLVTVSA VL: DIVMTQSPAIMSASLGERVTMTCTASSSISSSYLHWYQQKPGSSPKLWIYSTSNLASGVPARFSGSGSGTSYSLTISSMEAEDAATYYCHQYHRSPLAFGAGTKLELKR |  |  | binding [6]: binds; binding [7]: binds

Further lines, with some results ahead:

binding [5] | binding [8] | Binder | further results
binds | binds | PA2LR3-P4C6 (chimeric) (antibody, V domains shown) VH: EVQLQQSGAELVRPGSSVKISCKASGYAFSYYWMNWVKQRPGQGLEWIGQIYPGDGDTNYNGKFKGKATLTADKSSSTAYMQLSSLTSEDSAVYFCARSHGNYFPYWGQGTLVTVSA VL: DIVITQSPAIVSASLGERVTMTCTASSSVSSSYLHWYQQKPGSSPKLWIYSTSNLASGVPARFSGSGSGTSYSLTISSMEAEDAATYYCQQWSSYPLTFGAGTKLEIKR | 
 | binds | PA2LR3-P4B1 (chimeric) (antibody, human IgG1, kappa, V domains shown) VH: EVQLQQSGAELVRPGSSVKISCKASGFAFSNYWMNWVKQRPGQGLEWIGQIYPGDGDTNFNGKFKGRAILTADISSNTAYMQLSSLTSEDSAVYFCARSHGNYFPYWGQGTLVTVSA VL: QIVLTQSPAIMSASLGERVTMTCTASSSVSSSYLHWYQQKPGSSPKLWIYSTSNLASGVPARFSGSGSGTSYSLTISSMEAEDAATYYCHQYHRSPLTFGAGTKLELKR | 
 | binds | PA2LR3-P4B5 (chimeric) (antibody, human IgG1, kappa, V domains shown) VH: EVQLQQSGAELVRPGSSVKISCKASGYAFSYYWMNWVKQRPGQGLEWIGQIYPGDGDTNYSGRFKGKATLTADKSSSTAYIQLSSLTSEDSAVYFCARSHGNYFPYWGQGTLVTVSA VL: DIVLNQSPAIMSASLGERVTMTCTASSSVSSSYLHWYQQKPGSSPKLWIYSTSNLASGVPARFSGSGSGTSYSLTISSMEAEDAATYYCHQYHRSPLTFGAGTKLEIKR | 
binds | binds | PA2LR3-P2E5 (chimeric) (antibody, V domains shown) VH: EVQLQQSGAELVRPGSSVKISCKASGYAFRDYWMNWVKQRPGQGLEWIGQIYPGDGATNYIGKFKGKATLTADKSSSTAYMQLSSLTSEDSAVYFCARSHGNYFPYWGHGTLVTVSA VL: QIVLTQSPAIMSASLGERVTMTCTASSSVSSSYLHWYQQKPGSSPKLWIYSTSNLASGVPARFSGSGSGTSYSLTISSMEAEDAATYYCQQWSSYPLTFGAGTKLELKR | 
